Binding signal data for 42 sequences are collected here from paper PMC7819943, “Rice protein-binding microarrays: a tool to detect cis-acting elements near promoter regions in rice”.

The other results are listed elsewhere or left out.

The experiment addresses T1, OsSMF1 (Oryza sativa, UniProt Q6ZLB0 1-436).
T1 sequence: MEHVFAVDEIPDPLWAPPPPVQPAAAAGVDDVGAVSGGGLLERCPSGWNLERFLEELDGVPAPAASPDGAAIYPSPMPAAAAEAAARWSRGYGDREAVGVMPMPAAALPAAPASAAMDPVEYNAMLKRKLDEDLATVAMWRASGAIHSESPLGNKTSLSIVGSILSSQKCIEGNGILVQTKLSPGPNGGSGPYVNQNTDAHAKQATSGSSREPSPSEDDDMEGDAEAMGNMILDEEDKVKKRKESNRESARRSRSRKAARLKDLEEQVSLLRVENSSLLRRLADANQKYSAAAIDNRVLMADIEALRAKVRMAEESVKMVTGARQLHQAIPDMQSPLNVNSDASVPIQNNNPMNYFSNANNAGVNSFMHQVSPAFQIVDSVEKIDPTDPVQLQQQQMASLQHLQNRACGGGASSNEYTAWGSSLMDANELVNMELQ
Briefly: protein-binding microarray (RPBM); PBS, 2% BSA, 51.3 ng/ul salmon testes DNA, 50 uM zinc acetate, 200 nM TF, 25 C, 1 h; high values mean tight binding. The conditions noted are these: protein: recombinant; tags: N-terminal polyhistidine and DsRed monomer fusion (pET32a); chain copies: 2; label: CyDye5-dUTP incorporated in the synthesized complementary strand; 3' TTTTT single-stranded linker to array surface; dsDNA, one strand shown. The method, boiled down:
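Transcription factors, each fused N-terminally to a polyhistidine tag and DsRed, were expressed in E. coli BL21-CodonPlus and purified on Ni–NTA. A custom Agilent array was made double-stranded by primer extension with Cy5-dUTP and blocked with 2% BSA. It was incubated with 200 nM protein in PBS, 2% BSA, salmon testes DNA and 50 µM zinc acetate at 25 °C for 1 h, then washed. The binding signal is per-feature fluorescence intensity (arbitrary units) read on an Axon 4000B scanner.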
In the case of “GATTGGCCAAAACAAATGGCGACCGCATTACCCCGTTCTCCGGAGTCACCTAGTGCAG”, the binding signal is 3410 fluorescence intensity (a.u.).
For “CGATAGATTTCACCGAGCATGACATCGTCAGCAATATCAGCGGAGTCACCTAGTGCAG”, the binding signal is 5740 fluorescence intensity (a.u.).
As to “TTAGGAGTTGTAGCTCTACCAAACATGCACTAAATTATTACGGAGTCACCTAGTGCAG”, the binding signal is 3160 fluorescence intensity (a.u.).
The figure for “GGAGAAGGCCTGGTTCAACGGTGCCGTGGCCTCGTTCGCGCGGAGTCACCTAGTGCAG” is 3850 fluorescence intensity (a.u.); for “ATATGGCATTGTTTCTGTGTTATTCAGGCGCACCTTTAAACGGAGTCACCTAGTGCAG” it is 3210 fluorescence intensity (a.u.).
For “CGGTAGGACAATCTATGTGACATGGCACCCTGTGGGTTGCCGGAGTCACCTAGTGCAG”, the binding signal is 8010 fluorescence intensity (a.u.).
Regarding “AAACAACAGTTGTCTGACTTGAGTTGCTGATTTCGACGTTCGGAGTCACCTAGTGCAG”, the binding signal was 3900 fluorescence intensity (a.u.).
With “CGCTACCGTGGCATGCCACGTCACCGGATGGAGCGGGTCGCGGAGTCACCTAGTGCAG”, the binding signal was 20100 fluorescence intensity (a.u.).
The figure for “CTCATCTCTCCCACCTCCATCACCAAACCAGCACAGGTCGCGGAGTCACCTAGTGCAG” is 3240 fluorescence intensity (a.u.); for “GTTTTAGCGGATGTGGCATCATTTTCAGCATAATAATAATCGGAGTCACCTAGTGCAG” it is 4520 fluorescence intensity (a.u.).
For “TCGGAGACAAACTCGTACTGCAAAGCCTACGTGAAAATCGCGGAGTCACCTAGTGCAG” the value was 28900 fluorescence intensity (a.u.); for “TAACTGTGTGTGATGGTTGGATGGAAGGAGAGGCCCTGCACGGAGTCACCTAGTGCAG”, 37800 fluorescence intensity (a.u.).
For the sequence “GTTGACGTCTCCCAAGTGCCACACCCGCCGCCACGTCACTCGGAGTCACCTAGTGCAG”, the binding signal is 35500 fluorescence intensity (a.u.).
For “CTGCTCGACGCCGCCTGCGACAGACGCGTCACGGACCTTCCGGAGTCACCTAGTGCAG” the value was 5620 fluorescence intensity (a.u.); for “CCATGTCCCAGCATCGCGGAGGTGTGTCCCTACATGTCAGCGGAGTCACCTAGTGCAG”, 3340 fluorescence intensity (a.u.); for “GGTTTATGGGTGCCGATGTGGTTAAAATCATTTATGTGCTCGGAGTCACCTAGTGCAG”, 5050 fluorescence intensity (a.u.).
The figure for “TTCAGCAAACACTTCTAAACATGCCTGCGGATGTTTTGGGCGGAGTCACCTAGTGCAG” is 13600 fluorescence intensity (a.u.).
The figure for “AACTTAACAGCTCAAGCTTAATTCTGGGCCAAATTCACCACGGAGTCACCTAGTGCAG” is 3420 fluorescence intensity (a.u.); for “ACGCGAGGATGTCGACGAGGCGGTGGGCGACGCAAACCCGCGGAGTCACCTAGTGCAG” it is 3480 fluorescence intensity (a.u.).
As to “TATATGGTACTGTACGTATACGTGTCCAGCTATATATTCACGGAGTCACCTAGTGCAG”, the binding signal was 6670 fluorescence intensity (a.u.).
For “ATCTAGCGTGGTTACATGCTTGGGCCACGTCTCGGACCATCGGAGTCACCTAGTGCAG” the value was 3810 fluorescence intensity (a.u.); for “GTCTATTTAATCCTGTATCACGCCCAGATTCCTGAGTCCACGGAGTCACCTAGTGCAG”, 3180 fluorescence intensity (a.u.).
In the case of “CAACTAGAAATCAGATCCACGTCTACTAGTACAGATATGTCGGAGTCACCTAGTGCAG”, the binding signal is 4810 fluorescence intensity (a.u.).
For the sequence “TCACCAATTTGCATGGAACCGTGGCTGTTTGGCGGTGCCACGGAGTCACCTAGTGCAG”, the binding signal is 3330 fluorescence intensity (a.u.).
For “ACTTATCTTGTTATAGCTGACGACGACATTCTGATGTGTCCGGAGTCACCTAGTGCAG” the value was 6840 fluorescence intensity (a.u.).
The figure for “GCGTTCGCGTATATATCCCTCTCCTCACACACACAGGTGTCGGAGTCACCTAGTGCAG” is 3510 fluorescence intensity (a.u.); for “TACGTGTGGATTTTCTCGCCGGAGTTATCACGAGAATTCGCGGAGTCACCTAGTGCAG” it is 3200 fluorescence intensity (a.u.); for “ACTGGCATATGATAAGCAGTTCACATTACATCATTTAAAACGGAGTCACCTAGTGCAG” it is 5150 fluorescence intensity (a.u.).
The figure for “CGCATCGCATCTATGACTGGAGAGTGTATCTTTGCTTGCACGGAGTCACCTAGTGCAG” is 3180 fluorescence intensity (a.u.); for “CTTCTCCAGGCTCCAGCTCAGGTTGCTGATCCGCTCCTTTCGGAGTCACCTAGTGCAG” it is 27000 fluorescence intensity (a.u.); for “TCGACGATCACTTCATAGGATTCCCTCTCTTTCTACAATCCGGAGTCACCTAGTGCAG” it is 6640 fluorescence intensity (a.u.).
Take “AGCGCTCTGGACTGAACAGTCCTCACAGCCACCGCCTCCGCGGAGTCACCTAGTGCAG”: the binding signal is 3910 fluorescence intensity (a.u.).
The figure for “GGTGTCCTTCCAAATTCGACTCTGCATCCCATACGCACACCGGAGTCACCTAGTGCAG” is 3650 fluorescence intensity (a.u.).
The figure for “GGAGAAGGTTGTCACTGCATATTGCATCATTGCATGAGTGCGGAGTCACCTAGTGCAG” is 4950 fluorescence intensity (a.u.); for “TTTTACATATGGCAGAAATTTGCAACTCTTGAGTCATCTGCGGAGTCACCTAGTGCAG” it is 5130 fluorescence intensity (a.u.); for “GCGGCGGGGTGTCGCGGTGGTGGGTGAAGGCGACGTCGACCGGAGTCACCTAGTGCAG” it is 3330 fluorescence intensity (a.u.).
Consider “TCCTCCTCTCCCTCGCCATGCTCGCCTTCGAGACGGTGGCCGGAGTCACCTAGTGCAG”, for which the binding signal is 3240 fluorescence intensity (a.u.).
For “GTTAATTACTTGAACCACGTAAGAAAACAAGGACACATGCCGGAGTCACCTAGTGCAG” the value was 3200 fluorescence intensity (a.u.); for “TTCCTACATTCATATTGATGCCAATGAATCTAGATATGAACGGAGTCACCTAGTGCAG”, 12100 fluorescence intensity (a.u.); for “ATGTATAACTTAGATCCATACACACGTGGACGACGGGTGACGGAGTCACCTAGTGCAG”, 7540 fluorescence intensity (a.u.).
For “TCTTTGTGTTCTTGCTCTCTCTCACCATTACACGTCGAATCGGAGTCACCTAGTGCAG” the value was 5510 fluorescence intensity (a.u.).
For “GCCGGCTCGCCTCTGGCACGCCCACCTCATCCGCCTCCACCGGAGTCACCTAGTGCAG” the value was 4870 fluorescence intensity (a.u.).
